Each structure is given as a SMILES string. Several values for one entry are separate records, joined by “and”; a condition that tells them apart may be missing. Identical values can stand only once. The list shows a part of the results. Further columns of the screen follow, without active or inactive calls. Compounds called inactive in the main read-out are mostly missing here. For some assays here: Potencies come from curve fits of mixed quality, noted in brackets.

The nature of assay [1]: Validation of Assay for Modulators of Lamin A Splicing (AID 1459). Conditions: Lamin A splicing dual RFP/GFP fluorescence reporter, ratio. A digest of the protocol:
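S3 HeLa cells stably expressing a lamin A-EGFP splicing minigene and DsRed2 were seeded at 600 cells/well in Opti-MEM with 2% FBS, pin-dosed, and incubated 48 hrs at 37 °C, 5% CO2. Laser-scanning cytometry (488 nm) gave GFP/RFP total intensity ratio.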

Assay [2] can be described thus: qHTS Assay for Lipid Storage Modulators (AID 1519). Conditions: Drosophila S3 cells, BODIPY lipid droplet/cell ratio, laser cytometry, cells loaded with oleic acid. A digest of the protocol: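 Cells seeded at 5,000 per well were treated with compounds over a concentration series and loaded with oleic acid (400 uM, as added). Lipid droplet fluorescence (488 nm excitation, 500-530 nm channel) was read by laser-scanning cytometry and normalized to 20 uM Triacsin C.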

Assay [3] is described as follows: qHTS Assay for Modulators of Human Peripheral Myelin Protein 22 (PMP22) Expression/Activity (AID 1967). Conditions: Cell-based PMP22 reporter, dual-color luciferase ratio. A digest of the protocol:
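MSC80 mouse Schwann cells stably carrying Pmp22 promoter–green click beetle luciferase plus EF-alpha–red luciferase control were dosed for 24h at 37 °C. Dual-colour luminescence was filter-overlap corrected; %Activity came from green/red ratio versus untreated cells.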

The nature of assay [4]: qHTS Assay for Inhibitors of PDE-IV (AID 607). Particulars: HEK293 ACTOne CNG channel cells, membrane potential fluorescence; measured here: parental cell counter-screen. The gist of the method: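 Live HEK293 cells with a modified cyclic nucleotide-gated (CNG) channel report intracellular cAMP via membrane-potential dye fluorescence (ex 535/em 590 nm). Endogenous PDE-IV was targeted. Compounds were tested at up to 22.9 uM final; RO 20-1724 100 uM served as control.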

Assay [5] is described as follows: qHTS Validation Assay to Find Inhibitors of Chronic Active B-Cell Receptor Signaling (AID 485345). Particulars: ABC-DLBCL cells, chronic BCR signaling reporter. The gist of the method:
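TMD8 ABC-DLBCL cells stably carrying doxycycline-inducible IkappaBalpha–green luciferase fusion plus unfused red luciferase; compounds 46 uM to 3 nM, 4 h at 37C with doxycycline. Corrected green/red luminescence ratio normalized to 10 uM MG-132 and basal cell wells; curves fitted.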

Assay [6] is described as follows: Nrf2 qHTS screen for inhibitors: Validation (AID 493153). Particulars: A549 ARE-Fluc reporter, 18-24 h; AC50: CellTiter-Fluor fluorescence read, measured here: cytotoxicity CellTiter-Fluor AC50; viability change: measured here: cytotoxicity max response. The gist of the method:
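Luminescence from an ARE-firefly luciferase reporter in A549 cells gives Nrf2 inhibition; an earlier CellTiter-Fluor fluorescent read flags cytotoxicity. Cells in 5% FBS OPTI-MEM received compound dilution series for 18-24 h at 37°C.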

A short description of assay [7]: A High-Content qHTS Against Drug Library for the Identification of Small Molecules that Inhibit DYT1 Early Onset Primary Dystonia-Associated Cell Pathology (AID 1645839). Particulars: HEK293 Flp-In EGFP-delE TorsinA, punctate imaging, 48 h; measured here: cell count cytotoxicity. The gist of the method:
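Flp-In T-REx 293 cells with tetracycline-inducible EGFP-delE hTOR1A (WT EGFP-hTOR1A as reference), 800 cells/well; compound added with tetracycline, 48 h at 37 C. Fixed, permeabilized cells imaged; %pathology (punctate TorsinA) primary, cell count counterscreen.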

A short description of assay [8]: qHTS for identification of novel therapeutic agents for treatment of microphthalmiaassociated transcription factor (MiT) renal cell carcinoma (RCC) (AID 1963991). Conditions: CellTiter-Glo, 48 h; for z-score: stronger effect = lower value. A digest of the protocol:
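Viability of three TFE3-fusion renal carcinoma lines measured by CellTiter-Glo after 48 h treatment with each of 1912 compounds at 11 concentrations. Responses scaled between DMSO (100%) and empty wells (0%) before curve fitting.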

[9] abbreviates: measured here: cell count channel max response.
[10] abbreviates: measured here: lipid channel max response.
The mark [11] stands for this setting: measured here: green reporter channel AC50, mouse Pmp22 promoter in mouse Schwann cells.
The mark [12] stands for this setting: measured here: red reporter channel AC50, EF-alpha promoter control reporter in MSC80 mouse Schwann cells.
The mark [13] stands for this setting: measured here: CBR control luciferase (viability counter).

For `Nc1nc(Cl)nc2c1ncn2[C@@H]1O[C@H](CO)[C@H](O)[C@H]1O`, the concentration at half-maximal activity (AC50) in assay [1] (measured here: GFP channel) was 25.1 µM [falling, single point]; in assay [1] (measured here: RFP channel), 20 µM [falling, single point]; in assay [3] (setting [11]) it was 19 µM [falling, full curve]; in assay [3] (setting [12]), 16.9 µM [falling, full curve]. The max response in assay [2] (setting [9]) stood at 40.9%; in assay [2] (setting [10]), 38.6%.

Turning to `CNCCC(Oc1ccccc1C)c1ccccc1` (stereo unspecified), the AC50 in assay [1] (measured here: GFP channel) is 35.5 µM [falling, single point]; in assay [1] (measured here: RFP channel), 35.5 µM [falling, single point]; in assay [3] (setting [11]), 84.9 µM [falling, single point]; in assay [3] (setting [12]) it was 84.9 µM [falling, single point].

`Cc1ccc(Cl)c(Nc2ccccc2C(=O)O)c1Cl`: the AC50 in assay [4] is 12.6 µM [rising, partial curve] and 5.01 µM [rising, partial curve]; in assay [1] (measured here: GFP channel) it was 35.5 µM [falling, single point]; in assay [1] (measured here: RFP channel), 20 µM [falling, partial curve]; in assay [3] (setting [12]) it was 95.3 µM [falling, single point]; in assay [5] (setting [13]), 18.4 µM [falling, single point]; in assay [7] it was 8.91 µM [falling, partial curve]. The viability change in assay [6] is -0.981%.

On to `CC(C)(C)c1ccc(C(O)CCCN2CCC(C(O)(c3ccccc3)c3ccccc3)CC2)cc1` (stereo unspecified), for which the AC50 is 25.1 µM [falling, single point] in assay [1] (measured here: GFP channel); 15.8 µM [falling, single point] in assay [1] (measured here: RFP channel); 84.9 µM [falling, single point] in assay [3] (setting [12]).

On to `Cc1ccc(/C(=C\CN2CCCC2)c2ccccn2)cc1`, for which the AC50 in assay [1] (measured here: GFP channel) is 25.1 µM [falling, single point]; in assay [1] (measured here: RFP channel) it was 25.1 µM [falling, single point]; in assay [3] (setting [12]) it was 2.69 µM [rising, full curve, poor fit].

Regarding `CN1CCN(CCCN2c3ccccc3Sc3ccc(Cl)cc32)CC1`, the AC50 in assay [1] (measured here: GFP channel) was 10 µM [falling, partial curve]; in assay [1] (measured here: RFP channel) it was 17.8 µM [rising, single point]; in assay [3] (setting [11]) it was 42.6 µM [falling, full curve]; in assay [3] (setting [12]), 37.9 µM [falling, full curve]; in assay [5] (measured here: CBG/CBR ratio read-out) it was 29.1 µM [falling, single point]; in assay [5] (setting [13]) it was 29.1 µM [falling, single point]. Also, the AC50 in assay [7] was 3.16 µM [falling, partial curve, poor fit]; in assay [8] (TFE3-RCC viability, measured here: UOK124 cell viability), 26.4 µM [falling, partial curve]; in assay [8] (TFE3-RCC viability, measured here: UOK145 cell viability), 20.9 µM [falling, partial curve]. The max response in assay [2] (setting [9]) came out at 41.1%; in assay [2] (setting [10]), 42.2%. Also, the z-score in assay [8] (TFE3-RCC UOK109 viability, measured here: UOK109 Z-AUC) is -0.647; in assay [8] (TFE3-RCC viability, measured here: UOK124 Z-AUC), 0.115; in assay [8] (TFE3-RCC viability, measured here: UOK145 Z-AUC) it was 0.0461.

`CCCC1O[C@@H]2C[C@H]3[C@@H]4CCC5=CC(=O)C=C[C@]5(C)C4[C@@H](O)C[C@]3(C)[C@]2(C(=O)CO)O1` (stereo partly specified): the AC50 was 6.31 µM [rising, partial curve] in assay [1] (measured here: GFP channel); 12.6 µM [rising, single point] in assay [1] (measured here: RFP channel); 60.1 µM [falling, partial curve, poor fit] in assay [3] (setting [11]); 75.7 µM [falling, partial curve, poor fit] in assay [3] (setting [12]).

These data come from PubChem BioAssay (NCATS).
